Results are given in words; binding and its absence hold for the method and conditions named. Binding seen in cells or lysates may run through a third protein. Some entries that bind do so weakly or less than the wild type. Where a sequence is shown, tags or fusion partners need not be part of it.
Columns and labels:
[1] = biological target: T1, GST-CAPK full-length (ciliopathy-associated protein kinase, intestinal cell kinase ICK), wild type (human) (UniProt Q9UPZ9); test: pull-down; in vitro binding assay: GST, GST-CAPK FL or GST-CAPK (1–291) from HEK293T affinity-purified on glutathione Sepharose beads, incubated with cell lysate containing HA-KIF3A at 4 °C overnight, rinsed, eluted; Western blot against HA or KIF3A; only the target purified
T1 sequence: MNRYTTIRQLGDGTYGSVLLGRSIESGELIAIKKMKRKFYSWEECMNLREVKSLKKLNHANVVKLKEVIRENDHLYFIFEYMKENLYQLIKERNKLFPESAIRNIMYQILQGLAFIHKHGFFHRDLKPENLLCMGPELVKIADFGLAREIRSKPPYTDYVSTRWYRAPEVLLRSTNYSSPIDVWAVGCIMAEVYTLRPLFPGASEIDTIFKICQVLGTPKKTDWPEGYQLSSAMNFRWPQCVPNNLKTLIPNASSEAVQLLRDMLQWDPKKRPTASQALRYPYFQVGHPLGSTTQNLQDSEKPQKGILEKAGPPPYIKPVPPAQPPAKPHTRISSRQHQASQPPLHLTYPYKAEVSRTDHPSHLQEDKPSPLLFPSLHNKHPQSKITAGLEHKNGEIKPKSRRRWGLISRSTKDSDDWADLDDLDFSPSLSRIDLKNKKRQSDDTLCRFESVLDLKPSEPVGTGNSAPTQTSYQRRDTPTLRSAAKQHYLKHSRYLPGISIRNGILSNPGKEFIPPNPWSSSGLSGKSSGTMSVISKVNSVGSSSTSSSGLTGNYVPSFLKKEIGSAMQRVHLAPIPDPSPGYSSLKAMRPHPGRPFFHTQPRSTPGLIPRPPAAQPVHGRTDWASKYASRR

Protein sequences, listed by entry. Tags and fused reporters are not part of them.
UniProt Q9Y496: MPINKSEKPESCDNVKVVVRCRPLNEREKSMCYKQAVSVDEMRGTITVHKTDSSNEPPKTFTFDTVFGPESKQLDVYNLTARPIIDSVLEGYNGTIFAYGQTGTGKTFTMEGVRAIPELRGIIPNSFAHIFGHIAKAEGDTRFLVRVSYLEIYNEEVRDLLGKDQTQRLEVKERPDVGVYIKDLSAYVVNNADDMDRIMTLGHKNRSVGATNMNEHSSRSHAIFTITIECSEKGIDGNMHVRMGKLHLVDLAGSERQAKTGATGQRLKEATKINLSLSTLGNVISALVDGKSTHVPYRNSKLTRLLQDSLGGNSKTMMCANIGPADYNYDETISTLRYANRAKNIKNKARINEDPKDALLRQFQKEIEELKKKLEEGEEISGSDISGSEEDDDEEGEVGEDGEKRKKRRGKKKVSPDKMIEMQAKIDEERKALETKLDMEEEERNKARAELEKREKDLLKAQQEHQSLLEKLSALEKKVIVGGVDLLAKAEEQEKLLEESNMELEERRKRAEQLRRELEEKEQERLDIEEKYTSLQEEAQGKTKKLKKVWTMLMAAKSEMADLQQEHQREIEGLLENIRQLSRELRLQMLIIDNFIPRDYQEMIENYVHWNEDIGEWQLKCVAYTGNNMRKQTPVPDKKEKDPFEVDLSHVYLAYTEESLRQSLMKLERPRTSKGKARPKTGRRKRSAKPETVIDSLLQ

[2] = biological target: T1, GST-CAPK full-length (ciliopathy-associated protein kinase, intestinal cell kinase ICK), wild type (human); test: pull-down; GST, GST-CAPK FL or GST-CAPK (1–291) co-expressed with HA-KIF3A in HEK293T cells; GST fusion proteins pulled down from cell lysate (50 mM Tris-HCl pH 7.4, 150 mM NaCl, 1% NP-40) with glutathione Sepharose 4B beads; HA-KIF3A on beads detected by anti-HA and anti-KIF3A Western blot

binding [1]: binds
binding [2]: binds
Substance: HA-KIF3A (kinesin family member 3A) (from UniProt Q9Y496 1-699)

From article PMC6678984
